Source: PubChem BioAssay AID190 (DTP/NCI, 2004)
The list is a part of this screen's results and no random one: it gathers some chemical classes. Other doses and runs of a compound may be missing. T/C: endpoint of the treated group in % of that of the vehicle group. Some entries give survivors of the animals treated and no T/C: the source holds a T/C of zero for them, seemingly a mark for toxic or unscored doses. Some doses without a T/C left all or most animals alive at the check, yet need not have been tolerated: the source hardly ever lists a survival T/C far under the control, and the zero likely stands for such cases as well. Survivors were counted at the toxicity check, usually on the fifth day, unless a day is given; later deaths do not show. Schedules are NCI's codes, taken here to give the interval after Q, in days (D) or hours (H), and the number of doses after X. For survival time, the PubChem record calls one and a half times the control and up active, and a quarter to a half above the control has no call in these data; cut-offs in other NCI protocols can differ. Some T/C values are followed by the survivors on the day toxicity was checked, most often the fifth; where neither a count nor a note follows, no animal had died by that day. Some entries were tested several times; their values stand side by side, smallest first.

Test system: AKR/Lw mice, AKR lymphoma ip, median survival T/C
Experiment: NCI In Vivo Anticancer Drug Screen. Data for tumor model Lymphoma AKR (Transplanted) (intraperitoneal) in AKR/Lw mice
Conditions: T/C endpoint: median survival time, higher T/C = longer survival
Method: The antitumor activity of compounds was measured in mice bearing transplantable tumors. Survival or tumor size were measured and the results are expressed as the measurement made in the treated group (T) divided by the measurement made in the vehicle treated control group (C). The tumor model used in this assay is Lymphoma AKR (Transplanted) (intraperitoneal) in AKR/Lw mice

For CCOP(OCC)OCc1ccccc1, the T/C (dose: 50.0 mg/kg/injection, schedule: Q01DX009 (ip), vehicle: saline) was 114 % of control, the T/C (dose: 75.0 mg/kg/injection, schedule: Q01DX009 (ip), vehicle: saline) was 116 % of control and the T/C (dose: 100.0 mg/kg/injection, schedule: Q01DX001 (ip), vehicle: saline, evaluated on day 45) was 98 % of control. The T/C (dose: 100.0 mg/kg/injection, schedule: Q01DX001 (ip), vehicle: saline, evaluated on day 60) was 95 and 100 % of control [9 of 10 alive], the T/C (dose: 100.0 mg/kg/injection, schedule: Q01DX009 (ip), vehicle: saline) was 107 % of control and the T/C (dose: 100.0 mg/kg/injection, schedule: Q04DX003 (ip), vehicle: other) was 117 % of control. For the same molecule, the T/C (dose: 100.0 mg/kg/injection, schedule: Q04DX003 (ip), vehicle: saline) was 102 and 111 % of control, the T/C (dose: 150.0 mg/kg/injection, schedule: Q01DX009 (ip), vehicle: saline) was 116 % of control and the T/C (dose: 200.0 mg/kg/injection, schedule: Q01DX001 (ip), vehicle: saline, evaluated on day 45) was 105 % of control [9 of 10 alive]. The T/C (dose: 200.0 mg/kg/injection, schedule: Q01DX001 (ip), vehicle: saline, evaluated on day 60) was 96 [8 of 10 alive] and 102 % of control, the T/C (dose: 200.0 mg/kg/injection, schedule: Q01DX009 (ip), vehicle: saline) was 100 % of control and the T/C (dose: 200.0 mg/kg/injection, schedule: Q04DX003 (ip), vehicle: other) was 128 % of control. For the same molecule, the T/C (dose: 200.0 mg/kg/injection, schedule: Q04DX003 (ip), vehicle: saline) was 100 and 119 % of control, the T/C (dose: 300.0 mg/kg/injection, schedule: Q04DX003 (ip), vehicle: saline) was 102 % of control and the T/C (dose: 400.0 mg/kg/injection, schedule: Q01DX001 (ip), vehicle: saline, evaluated on day 45) was 128 % of control. For the same molecule, the T/C (dose: 400.0 mg/kg/injection, schedule: Q01DX001 (ip), vehicle: saline, evaluated on day 60) was 93 [9 of 10 alive] and 104 % of control, the T/C (dose: 400.0 mg/kg/injection, schedule: Q01DX009 (ip), vehicle: saline) was 105 % of control and the T/C (dose: 400.0 mg/kg/injection, schedule: Q04DX003 (ip), vehicle: other) was 110 % of control. For the same molecule, the T/C (dose: 400.0 mg/kg/injection, schedule: Q04DX003 (ip), vehicle: saline) was 109 % of control, the T/C (dose: 500.0 mg/kg/injection, schedule: Q01DX001 (ip), vehicle: saline) was 115 % of control and the T/C (dose: 600.0 mg/kg/injection, schedule: Q01DX001 (ip), vehicle: saline) was 107 % of control [9 of 10 alive]. The survivor count (dose: 800.0 mg/kg/injection, schedule: Q01DX001 (ip), vehicle: saline) was 7 of 10.
For CC(C)c1nc(Nc2ccccc2)n(P(=O)(N(C)C)N(C)C)n1, the T/C (dose: 1.5 mg/kg/injection, schedule: Q01DX001 (ip), vehicle: saline) was 97 % of control, the T/C (dose: 3.0 mg/kg/injection, schedule: Q01DX001 (ip), vehicle: saline) was 100 % of control and the T/C (dose: 6.0 mg/kg/injection, schedule: Q01DX001 (ip), vehicle: saline) was 94 % of control.
